Source: PubChem BioAssay AID540276 (National Center for Advancing Translational Sciences (NCATS), 2011)
Where “and” joins values, the source holds several entries; their conditions need not be identical. Equal entries are not always repeated. In all, about 300,000 compounds went through this assay and about 5,400 (1.8%) were called active. Inconclusive means that the source gave no clear call. Such entries were picked first, then a sample of the others. The call rests on the fitted dose curve; tested in HEK293 cells. Where the call is inconclusive, the potency comes from a doubtful curve fit.

Experiment: qHTS for inhibitors of binding or entry into cells for Marburg Virus
Conditions: Marburg virus pseudotyped entry inhibition, cell reporter
[1] = activity change, negative = inhibition: at 37.8 µM (top of the series) unless noted
On the % scale 0 is the no-effect control and ±100 the full control effect; potency means the concentration at half of the fitted maximal effect.

Structure (SMILES): COc1cc(NC(=O)c2cc([N+](=O)[O-])ccc2Br)ccc1NC(=O)c1ccco1
- Potency [1]: inconclusive: 14.1 µM [inhibitor, partial curve, poor fit]

Structure (SMILES): CCCCc1n[nH]c(=S)n1Cc1ccc(Cl)cc1
- Potency [1]: inconclusive: 0.891 µM [inhibitor, full curve, poor fit]

Structure (SMILES): COc1ccc2[nH]c(C(=O)Nc3ccc(C)c(F)c3)cc2c1
- Potency [1]: inconclusive: 22.4 µM [activator, partial curve, poor fit]

Structure (SMILES): O=[N+]([O-])c1cccc(CN2CCN(Cc3ccc(Cl)cc3)CC2)c1
- Potency [1]: inactive

Structure (SMILES): CSc1ncccc1C(=O)OCC(=O)Nc1ccc(C)c(S(=O)(=O)N2CCOCC2)c1
- Potency [1]: inconclusive: 7.94 µM [inhibitor, partial curve, poor fit]

Structure (SMILES): Cc1c(CNC(C)CCc2ccccc2)c(C(=O)O)c(C)n1Cc1ccc(F)cc1Cl (centres undefined)
- Potency [1]: inconclusive: 35.5 µM [inhibitor, single point]

Structure (SMILES): COc1ccccc1OCCCOc1c(C)cc(C)cc1Br
- Potency [1]: inconclusive: 0.562 µM [activator, full curve, poor fit]

Structure (SMILES): CCCCCC(=O)Nc1ccc(S(=O)(=O)Nc2nccc(C)n2)cc1
- Potency [1]: inactive

Structure (SMILES): CCOC(=O)C(NC(=O)CC)(Nc1sc2c(c1C(=O)OC)CCN(C)C2)C(F)(F)F (centres undefined)
- Potency [1]: inactive and inconclusive: 794 nM [inhibitor, partial curve, poor fit]

Structure (SMILES): Cc1ccccc1Nc1c(-c2ccc(N3CCOCC3)cc2)nc2ncccn12
- Potency [1]: inconclusive: 10 µM [activator, partial curve, poor fit]

Structure (SMILES): COc1ccc(CN2COc3ccc4c(oc(=O)c5ccccc54)c3C2)cc1OC
- Potency [1]: inconclusive: 3.55 µM [inhibitor, partial curve, poor fit]

Structure (SMILES): CCOc1ccc(NC(=S)N(CCc2c(C)[nH]c3ccc(C)cc23)Cc2ccco2)cc1
- Potency [1]: inconclusive: 20.6 µM [inhibitor, single point]

Structure (SMILES): COc1ccc(NC(=O)c2c(-c3ccccc3)c(-c3ccccc3)nn(C)c2=O)c(OC)c1
- Potency [1]: inconclusive: 5.62 µM [inhibitor, single point]

Structure (SMILES): COc1ccc(OCC(=O)NCC(c2ccc(Cl)cc2)N2CCCCC2)cc1 (centres undefined)
- Potency [1]: inconclusive: 28.2 µM [inhibitor, single point]

Structure (SMILES): CC(=O)[C@@]1(O)[C@H](C)CC2C3CC=C4CC(OP(=O)(O)O)CC[C@]4(C)C3CC[C@@]21C (some centres undefined)
- Potency [1]: inactive

Structure (SMILES): CCN=C1SC(CC(=O)NC(C)C)C(=O)N1CC (centres undefined)
- Potency [1]: inactive

Structure (SMILES): Clc1ccc2c(N/N=C/c3cccnc3)ccnc2c1
- Potency [1]: inconclusive: 11.2 µM [inhibitor, partial curve, poor fit]

Structure (SMILES): COc1cccc(CNC(=O)c2ccc(C)c(S(=O)(=O)N3CCCCC3)c2)c1
- Potency [1]: inconclusive: 5.62 µM [inhibitor, full curve]

Structure (SMILES): CC(=O)Nc1ccc(S(=O)(=O)N2CCC(Oc3ccc(-n4cnnn4)cc3)CC2)cc1
- Potency [1]: inconclusive: 12.6 µM [inhibitor, partial curve]

Structure (SMILES): C[C@@H]1CN(Cc2cn(C)nc2-c2cccc(Cl)c2)C[C@H](C)O1
- Potency [1]: inactive

Structure (SMILES): COCCCNC(=O)c1sc2nc(C)c(C(=O)Nc3ccc(C)cc3C)c(-c3ccc(Cl)cc3)c2c1N
- Potency [1]: inconclusive: 35.5 µM [inhibitor, single point]

Structure (SMILES): COC(=O)c1cc2c(ccn2-c2ccc(F)cc2)n1Cc1cccc(OC)c1
- Potency [1]: inactive

Structure (SMILES): Cc1ccc(S(=O)(=O)N2CCN(C(=O)c3ccc(N4CCCCC4)c([N+](=O)[O-])c3)CC2)cc1
- Potency [1]: inconclusive: 35.5 µM [inhibitor, single point]

Structure (SMILES): N#CC(=C(/N)Sc1ccccc1N)/C(C#N)=C(\N)Sc1ccccc1N
- Potency [1]: inconclusive: 14.1 µM [inhibitor, partial curve, poor fit]

Structure (SMILES): CCCc1cc(=O)oc2cc(OCc3cccc(OC)c3)c(Cl)cc12
- Potency [1]: inconclusive: 1.26 µM [activator, partial curve, poor fit]

Structure (SMILES): COc1cc(C(=O)N2CCN(c3ccccc3)CC2)c2ccccc2n1
- Potency [1]: inconclusive: 17.8 µM [inhibitor, partial curve, poor fit]

Structure (SMILES): COc1ccc(NC(=O)c2ccc(-c3csc(C)n3)cc2)cc1
- Potency [1]: inconclusive: 3.55 µM [inhibitor, full curve]

Structure (SMILES): Cc1cc(Cl)ccc1OCc1nc(-c2ccncc2)no1
- Potency [1]: inconclusive: 35.5 µM [inhibitor, single point]

Structure (SMILES): CCCNC(=O)c1cc(-c2ccco2)on1
- Potency [1]: inactive

Structure (SMILES): Clc1ccc(-c2cn3nc4c(nc3n2)CCCC4)cc1
- Potency [1]: inconclusive: 0.891 µM [inhibitor, full curve, poor fit]

Structure (SMILES): CCOC(=O)CNS(=O)(=O)c1cc(-c2nnc(Nc3ccc4c(c3)OCO4)c3ccccc23)ccc1C
- Potency [1]: inconclusive: 35.5 µM [inhibitor, single point]

Structure (SMILES): CCCCn1c(N)c(N(CCOC)C(=O)c2ccc(-c3ccc(C(C)=O)cc3)o2)c(=O)[nH]c1=O
- Potency [1]: inconclusive: 3.16 µM [activator, single point]

Structure (SMILES): Cc1cc(-c2nc3ncccc3o2)ccc1NC(=O)c1ccc(Br)cc1
- Potency [1]: inactive

Structure (SMILES): CC(C)CNc1nnnc2c1sc1nc(N3CCOCC3)c3c(c12)CC(C)(C)SC3
- Potency [1]: inconclusive: 35.5 µM [inhibitor, single point]

Structure (SMILES): Cc1nc(SCC(=O)c2cc3ccccc3oc2=O)c(C#N)c(-c2ccccc2)c1C(=O)Nc1ccccc1
- Potency [1]: inconclusive: 0.082 µM [inhibitor, partial curve, poor fit]

Structure (SMILES): COc1ccc(NS(=O)(=O)c2ccc(C(=O)Nc3c(C)n(C)n(-c4ccccc4)c3=O)cc2)cc1
- Potency [1]: inconclusive: 1.41 µM [inhibitor, full curve, poor fit]

Structure (SMILES): COc1cc2c(cc1OC)CN(Cc1ccc(OC)c(C)c1OC)CC2
- Potency [1]: inconclusive: 29.1 µM [inhibitor, single point]

Structure (SMILES): O=C(c1ccc(CNS(=O)(=O)c2ccc(Br)cc2)cc1)N1CCC2(CC1)OCCO2
- activity change, negative = inhibition [1]: inconclusive: 15.2% [activator]
- activity change, negative = inhibition (at 37.8 µM (top of the series)): inactive: -18.1%

Structure (SMILES): O=C(N/N=C/C=C/c1ccccc1[N+](=O)[O-])c1cccnc1
- Potency [1]: inconclusive: 12.6 µM [inhibitor, partial curve, poor fit]

Structure (SMILES): O=C(CNC1CCCCCC1)Nc1ccc(S(=O)(=O)NC2CC2)cc1
- Potency [1]: inconclusive: 9.2 µM [inhibitor, partial curve]

Structure (SMILES): CN(CCO)Cc1csc2ccc(Br)cc12
- Potency [1]: inconclusive: 5.62 µM [activator, single point]

Structure (SMILES): Oc1ccc(CN2CCCc3ccccc32)c2cccnc12
- Potency [1]: inconclusive: 5.62 µM [inhibitor, single point]

Structure (SMILES): CCOc1cc(NC(=O)C2CC2)c(OCC)cc1NC(=O)c1ccccc1OCC
- Potency [1]: active: 10 µM

Structure (SMILES): Cc1ccc(C(c2nnnn2C2CCCCC2)N2CCN3CCCC3C2)cc1 (centres undefined)
- Potency [1]: inconclusive: 32.6 µM [inhibitor, partial curve, poor fit]

Structure (SMILES): CC(C)C(NC(=O)CN(c1ccc2c(c1)OCCO2)S(=O)(=O)c1ccccc1)C(C)C
- Potency [1]: inconclusive: 17.8 µM [inhibitor, partial curve, poor fit]

Structure (SMILES): CCN(CC)c1ccc(NC(=O)COc2ccccc2C#N)cc1S(=O)(=O)Nc1ccc(OC)cc1
- Potency [1]: inconclusive: 1.26 µM [inhibitor, single point]

Structure (SMILES): COc1cccc(-n2ccnc2SCC(=O)Nc2ccccc2)c1
- Potency [1]: inactive

Structure (SMILES): COc1cc2c(cc1NC(=O)CN(C)Cc1cccc(OC)c1OC)oc1ccccc12
- Potency [1]: inconclusive: 11.2 µM [inhibitor, partial curve, poor fit]

Structure (SMILES): O=C(OCc1cccc([N+](=O)[O-])c1)c1cccnc1Cl
- Potency [1]: inactive

Structure (SMILES): O=C(/C=C/Sc1ccccc1)c1ccccc1
- Potency [1]: inconclusive: 20.6 µM [inhibitor, single point]

Structure (SMILES): CCc1ccc(-c2csc3ncn(CC(=O)NCc4ccco4)c(=O)c23)cc1
- Potency [1]: inconclusive: 14.1 µM [inhibitor, partial curve, poor fit]

Structure (SMILES): COC(=O)C1=C(CSc2nc3ccccc3o2)NC(=O)NC1c1cc(C)ccc1C (centres undefined)
- Potency [1]: inconclusive: 35.5 µM [inhibitor, single point]

Structure (SMILES): CCOc1ccc(CC2S/C(=N/N=C/c3ccco3)NC2=O)cc1 (centres undefined)
- Potency [1]: inactive

Structure (SMILES): CN(C(=O)CCc1nnc(-c2ccc(-c3ccccc3)cc2)o1)C1CCOCC1
- Potency [1]: inactive

Structure (SMILES): CCOc1ccc(S(=O)(=O)N2CCN(c3c(C)cccc3C)CC2)c2ccccc12
- Potency [1]: inactive

Structure (SMILES): CN(C)/C=C1\Oc2ccc3ccccc3c2C1=O
- Potency [1]: inconclusive: 5.01 µM [activator, single point]

Structure (SMILES): CC(=O)c1c(C)[nH]c(C(=O)OCc2c(F)cccc2Cl)c1C
- Potency [1]: inconclusive: 11.2 µM [inhibitor, single point]

Structure (SMILES): COc1cc(/C=N/NS(=O)(=O)c2ccc3ccccc3c2)ccc1OCCN1CCOCC1
- Potency [1]: inconclusive: 2.82 µM [activator, single point]

Structure (SMILES): O=C(CCC(=O)OCC(=O)c1ccc(Cl)cc1Cl)Nc1cccc2cccnc12
- Potency [1]: inconclusive: 1.12 µM [activator, full curve, poor fit]

Structure (SMILES): COc1ccc(N/N=C(/C(C)=O)N2CCCc3ccccc32)cc1
- Potency [1]: inactive

Structure (SMILES): O=C(NCCc1ccc(Cl)cc1)C1CCC(CNc2nc(=S)[nH]c3ccccc23)CC1 (centres undefined)
- Potency [1]: inconclusive: 22.4 µM [inhibitor, single point]

Structure (SMILES): COc1ccc(-c2[nH]ncc2CN2CCC(O)(c3ccc(Cl)cc3)CC2)cc1
- Potency [1]: inconclusive: 15.8 µM [inhibitor, single point]

Structure (SMILES): O=C1NC(=O)C(=Cc2ccsc2)C(=O)N1
- Potency [1]: inconclusive: 35.5 µM [activator, partial curve, poor fit]
